This series has as its system MBD6 MBD domain-MBP-His + ASXL1 ASXH domain. In words: EMSA. The settings on record: ASXL1 ASXH present, MBD6-m5C binding not affected; 5-methyl-dC at positions 7, 19, 31; recombinant protein; protein details: C-terminal MBP-6xHis,His-SUMO; label: 5' 6-FAM; single-stranded DNA. In general terms: A gel shift assay detects complexes by their altered migration in electrophoresis.

The source of these data is PMC11499264, “RNA m5C oxidation by TET2 regulates chromatin state and leukaemogenesis”.

For at least one entry, the source does not settle the construct or the ends of the probe. At least one verdict was read from the data and is not stated in words by the source.

For the sequence “TATGACCTGCGGTATGACCTGCGGTATGACCTGCGG [p1-m5C (ss)]”, the binding result was “binds”.
